These results are taken from article PMC5023729.

Sequences of proteins named here, by UniProt entry; tags and fusion partners are left off. A change or cut given only in a name is not applied to a line headed by its entry.
UniProt Q13283: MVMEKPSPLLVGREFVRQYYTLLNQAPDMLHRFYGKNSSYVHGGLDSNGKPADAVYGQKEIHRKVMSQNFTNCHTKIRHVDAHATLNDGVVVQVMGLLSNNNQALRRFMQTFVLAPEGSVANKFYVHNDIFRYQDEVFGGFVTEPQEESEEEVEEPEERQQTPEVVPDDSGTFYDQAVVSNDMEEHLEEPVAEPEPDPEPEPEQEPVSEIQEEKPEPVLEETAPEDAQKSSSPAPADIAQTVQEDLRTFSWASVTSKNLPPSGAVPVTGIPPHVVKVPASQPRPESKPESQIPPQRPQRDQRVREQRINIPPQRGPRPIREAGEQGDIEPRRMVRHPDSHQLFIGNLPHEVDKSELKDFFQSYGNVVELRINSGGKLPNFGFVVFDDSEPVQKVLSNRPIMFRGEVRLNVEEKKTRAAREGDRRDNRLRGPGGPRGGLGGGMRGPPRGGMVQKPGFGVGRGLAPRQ
UniProt P00441: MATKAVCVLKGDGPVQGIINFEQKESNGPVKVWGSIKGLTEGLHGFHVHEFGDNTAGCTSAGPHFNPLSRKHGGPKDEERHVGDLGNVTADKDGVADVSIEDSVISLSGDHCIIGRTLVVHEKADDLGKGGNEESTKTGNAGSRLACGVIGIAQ

The target in one assay is T1, FLAG-MATR3 (UniProt P43243).
T1 sequence: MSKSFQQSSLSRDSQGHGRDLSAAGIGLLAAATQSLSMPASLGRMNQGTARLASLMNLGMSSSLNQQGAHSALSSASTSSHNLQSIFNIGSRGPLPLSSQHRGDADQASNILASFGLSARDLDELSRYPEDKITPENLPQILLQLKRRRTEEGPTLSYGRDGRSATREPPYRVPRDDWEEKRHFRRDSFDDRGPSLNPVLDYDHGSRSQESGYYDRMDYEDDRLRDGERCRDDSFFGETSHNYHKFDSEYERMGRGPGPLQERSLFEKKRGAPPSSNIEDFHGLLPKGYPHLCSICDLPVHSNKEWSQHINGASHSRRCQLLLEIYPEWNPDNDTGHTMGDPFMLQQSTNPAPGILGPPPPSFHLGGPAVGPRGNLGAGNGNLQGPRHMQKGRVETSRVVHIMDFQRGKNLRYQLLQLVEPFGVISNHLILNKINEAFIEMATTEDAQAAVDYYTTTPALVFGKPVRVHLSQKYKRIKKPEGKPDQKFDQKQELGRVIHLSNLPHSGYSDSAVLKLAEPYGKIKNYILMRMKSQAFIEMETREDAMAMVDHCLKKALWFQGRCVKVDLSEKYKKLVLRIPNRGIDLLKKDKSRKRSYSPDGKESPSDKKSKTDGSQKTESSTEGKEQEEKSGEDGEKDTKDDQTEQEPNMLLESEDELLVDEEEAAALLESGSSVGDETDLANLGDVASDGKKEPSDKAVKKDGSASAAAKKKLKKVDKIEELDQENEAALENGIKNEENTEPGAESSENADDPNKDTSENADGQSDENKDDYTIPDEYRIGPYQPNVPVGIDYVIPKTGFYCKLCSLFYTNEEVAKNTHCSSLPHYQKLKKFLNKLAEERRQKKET
Put plainly: co-IP; FLAG immunoprecipitation (anti-FLAG M2 affinity gel, elution with 3xFLAG peptide) from lysates of co-transfected cells; 1x RIPA buffer, 4 °C, 2 h; no RNase; western blot. A general note: In western blotting, separated proteins are transferred to a membrane and probed.

Assay [1] concerns the target FLAG-G3BP1 (human, wild type) (human) (UniProt Q13283). In words: co-IP; FLAG immunoprecipitation from lysates of co-transfected 293T cells with RNase Cocktail added to the immunoprecipitation mixture at 1:100; 1x RIPA buffer, 4 °C, 2 h.
Assay [2] has the same target. Put plainly: co-IP; FLAG immunoprecipitation (anti-FLAG M2 affinity gel, elution with 3xFLAG peptide) from lysates of co-transfected cells; 1x RIPA buffer, 4 °C, 2 h; no RNase; western blot.

These are yes or no findings as the source states them, for the method shown. Binding seen in cells or lysates may run through a third protein. For part of these data: A result given as binding can be weak or reduced; the word gives no strength. For part of these data: Sequences can lack the tags named with a protein.

Turning to A4V mutant SOD1-3xHA (human), the binding result with FLAG-MATR3 was “no binding”.
Turning to “Mutant SOD1 of the RNase experiment (from UniProt P00441)”, the binding entry in assay [1] and in assay [2] was “binds” throughout.
